Measurements from PMC2848011.
These are yes or no findings as the source states them, for the method shown.

By UniProt entry, the sequences of proteins in these tests, tags left out.
UniProt P08047: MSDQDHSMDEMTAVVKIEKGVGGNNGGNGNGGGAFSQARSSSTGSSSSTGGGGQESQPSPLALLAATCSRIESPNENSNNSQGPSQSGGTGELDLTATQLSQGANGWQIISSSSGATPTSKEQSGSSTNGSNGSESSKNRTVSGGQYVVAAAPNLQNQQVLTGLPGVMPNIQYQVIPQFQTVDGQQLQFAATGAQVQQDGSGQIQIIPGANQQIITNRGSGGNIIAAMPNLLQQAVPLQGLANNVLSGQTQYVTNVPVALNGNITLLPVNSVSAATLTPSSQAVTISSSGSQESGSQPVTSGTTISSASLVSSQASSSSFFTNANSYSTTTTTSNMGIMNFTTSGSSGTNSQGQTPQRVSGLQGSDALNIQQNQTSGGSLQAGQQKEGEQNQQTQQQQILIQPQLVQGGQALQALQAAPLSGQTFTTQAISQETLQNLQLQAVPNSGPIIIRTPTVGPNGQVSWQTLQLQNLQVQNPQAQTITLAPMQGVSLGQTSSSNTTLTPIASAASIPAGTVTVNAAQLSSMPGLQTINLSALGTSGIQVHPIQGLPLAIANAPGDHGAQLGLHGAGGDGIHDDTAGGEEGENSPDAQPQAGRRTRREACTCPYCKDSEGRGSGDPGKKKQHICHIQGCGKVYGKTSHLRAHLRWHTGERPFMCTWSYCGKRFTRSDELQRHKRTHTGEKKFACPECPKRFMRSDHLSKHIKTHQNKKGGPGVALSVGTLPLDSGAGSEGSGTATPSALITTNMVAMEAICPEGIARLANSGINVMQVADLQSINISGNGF

B1: activating transcription factor 2 (ATF-2) (protein, UniProt P15336 1-505)
chain: MKFKLHVNSARQYKDLWNMSDDKPFLCTAPGCGQRFTNEDHLAVHKHKHEMTLKFGPARNDSVIVADQTPTPTRFLKNCEEVGLFNELASPFENEFKKASEDDIKKMPLDLSPLATPIIRSKIEEPSVVETTHQDSPLPHPESTTSDEKEVPLAQTAQPTSAIVRPASLQVPNVLLTSSDSSVIIQQAVPSPTSSTVITQAPSSNRPIVPVPGPFPLLLHLPNGQTMPVAIPASITSSNVHVPAAVPLVRPVTMVPSVPGIPGPSSPQPVQSEAKMRLKAALTQQHPPVTNGDTVKGHGSGLVRTQSEESRPQSLQQPATSTTETPASPAHTTPQTQSTSGRRRRAANEDPDEKRRKFLERNRAAASRCRQKRKVWVQSLEKKAEDLSSLNGQLQSEVTLLRNEVAQLKQLLLAHKDCPVTAMQKKSGYHTADKDDSSEDISVPSSPHTEAIQHSSVSTSNGVSSTSKAEAVATSVLTQMADQSTEPALSQIVMAPSSQSQPSGS
B2: c-Rel (protein, UniProt Q04864 1-619)
chain: MASGAYNPYIEIIEQPRQRGMRFRYKCEGRSAGSIPGEHSTDNNRTYPSIQIMNYYGKGKVRITLVTKNDPYKPHPHDLVGKDCRDGYYEAEFGQERRPLFFQNLGIRCVKKKEVKEAIITRIKAGINPFNVPEKQLNDIEDCDLNVVRLCFQVFLPDEHGNLTTALPPVVSNPIYDNRAPNTAELRICRVNKNCGSVRGGDEIFLLCDKVQKDDIEVRFVLNDWEAKGIFSQADVHRQVAIVFKTPPYCKAITEPVTVKMQLRRPSDQEVSESMDFRYLPDEKDTYGNKAKKQKTTLLFQKLCQDHVETGFRHVDQDGLELLTSGDPPTLASQSAGITVNFPERPRPGLLGSIGEGRYFKKEPNLFSHDAVVREMPTGVSSQAESYYPSPGPISSGLSHHASMAPLPSSSWSSVAHPTPRSGNTNPLSSFSTRTLPSNSQGIPPFLRIPVGNDLNASNACIYNNADDIVGMEASSMPSADLYGISDPNMLSNCSVNMMTTSSDSMGETDNPRLLSMNLENPSCNSVLDPRDLRQLHQMSSSSMSAGANSNTTVFVSQSDAFEGSDFSCADNSMINESGPSNSTNPNSHGFVQDSQYSGIGSMQNEQLSDSFPYEFFQV
B3: c-Jun, P05412 1-331 (protein)
chain: MTAKMETTFYDDALNASFLPSESGPYGYSNPKILKQSMTLNLADPVGSLKPHLRAKNSDLLTSPDVGLLKLASPELERLIIQSSNGHITTTPTPTQFLCPKNVTDEQEGFAEGFVRALAELHSQNTLPSVTSAAQPVNGAGMVAPAVASVAGGSGSGGFSASLHSEPPVYANLSNFNPGALSSGGGAPSYGAAGLAFPAQPQQQQQPPHHLPQQMPVQHPRLQALKEEPQTVPEMPGETPPLSPIDMESQERIKAERKRMRNRIAASKCRKRKLERIARLEEKVKTLKAQNSELASTANMLREQVAQLKQKVMNHVNSGCQLMLTQQLQTF

How the values were obtained:
[1] = biological target: Specificity Protein 1 (Sp1) (human (endogenous in U937)) (UniProt P08047); test: native gel or EMSA; super-shift EMSA: radio labeled hres Sp1 oligonucleotide (-276 to -295), 7.5 µg U937 nuclear extract (unstimulated; Sp1-Sp3 also with PMA stimulated extract), 2 µg of antibody to each factor; Sp1 binding buffer (10 mM Tris-Cl pH 7.5, 75 mM KCl, 0.1 mM EDTA, 2.5 mM MgCl2, 0.25 mM DTT, 10% glycerol), on ice
[2] = biological target: Specificity Protein 1 (Sp1) (human (endogenous in U937)), P08047; test: as above; details: remark: other sources report otherwise

Row | Binder | binding [1] | binding [2]
1 | B1 | no binding | 
2 | B2 | no binding | 
3 | B3 |  | no binding
